Experimental findings from article PMC7828832 are described below.

Sequences of proteins named here, by UniProt entry; tags and fusion partners are left off. Residues count along the entry.
UniProt O75581, residues 20-1613: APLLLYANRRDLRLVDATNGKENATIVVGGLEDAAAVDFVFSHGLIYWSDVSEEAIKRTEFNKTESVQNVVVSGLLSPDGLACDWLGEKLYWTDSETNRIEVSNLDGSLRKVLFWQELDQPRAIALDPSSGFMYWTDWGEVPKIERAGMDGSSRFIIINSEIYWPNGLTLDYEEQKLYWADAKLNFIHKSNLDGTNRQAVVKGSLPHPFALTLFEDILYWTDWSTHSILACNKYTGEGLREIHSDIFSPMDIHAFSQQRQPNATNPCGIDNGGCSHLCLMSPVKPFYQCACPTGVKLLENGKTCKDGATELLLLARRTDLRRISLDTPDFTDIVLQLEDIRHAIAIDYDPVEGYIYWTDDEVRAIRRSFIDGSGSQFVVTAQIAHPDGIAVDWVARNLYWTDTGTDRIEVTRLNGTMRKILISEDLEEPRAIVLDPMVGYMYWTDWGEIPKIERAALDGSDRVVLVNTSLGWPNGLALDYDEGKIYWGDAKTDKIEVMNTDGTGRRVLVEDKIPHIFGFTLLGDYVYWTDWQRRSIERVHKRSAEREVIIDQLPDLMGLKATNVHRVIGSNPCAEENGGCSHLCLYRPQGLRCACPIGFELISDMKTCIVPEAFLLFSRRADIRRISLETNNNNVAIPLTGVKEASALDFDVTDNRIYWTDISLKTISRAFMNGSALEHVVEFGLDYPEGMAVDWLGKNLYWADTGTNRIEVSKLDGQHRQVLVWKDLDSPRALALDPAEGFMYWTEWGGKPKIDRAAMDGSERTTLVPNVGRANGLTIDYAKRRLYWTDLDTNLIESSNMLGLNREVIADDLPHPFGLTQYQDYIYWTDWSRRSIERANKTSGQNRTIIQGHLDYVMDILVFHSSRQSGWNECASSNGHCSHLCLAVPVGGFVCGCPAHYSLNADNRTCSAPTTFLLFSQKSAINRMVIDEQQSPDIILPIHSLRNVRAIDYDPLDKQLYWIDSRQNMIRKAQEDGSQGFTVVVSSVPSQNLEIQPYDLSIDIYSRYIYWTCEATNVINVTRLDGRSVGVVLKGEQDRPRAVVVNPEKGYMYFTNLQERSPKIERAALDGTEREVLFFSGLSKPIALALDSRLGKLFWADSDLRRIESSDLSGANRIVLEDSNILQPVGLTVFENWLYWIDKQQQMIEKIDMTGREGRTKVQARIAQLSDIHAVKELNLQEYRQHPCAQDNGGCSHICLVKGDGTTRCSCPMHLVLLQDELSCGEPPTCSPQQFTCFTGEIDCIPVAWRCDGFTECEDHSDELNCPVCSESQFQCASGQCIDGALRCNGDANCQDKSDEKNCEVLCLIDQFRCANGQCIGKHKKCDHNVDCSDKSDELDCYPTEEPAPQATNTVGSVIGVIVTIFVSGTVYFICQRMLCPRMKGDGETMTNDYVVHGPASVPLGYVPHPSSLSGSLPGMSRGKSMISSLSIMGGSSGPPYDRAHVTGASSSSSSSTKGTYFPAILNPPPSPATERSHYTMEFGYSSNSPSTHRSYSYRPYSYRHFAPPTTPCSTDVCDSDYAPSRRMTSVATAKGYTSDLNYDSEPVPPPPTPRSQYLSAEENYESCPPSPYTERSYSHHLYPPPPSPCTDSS

Results are given in words; binding and its absence hold for the method and conditions named. A result given as binding can be weak or reduced; the word gives no strength.

The target of this assay is Lrp6-mCherry (UniProt O75581). In words: fluorescence cross-correlation spectroscopy (FCCS); live U2OS cells co-transfected with the two fluorescently tagged proteins, measured at the plasma membrane 24 h after transfection; without and with Wnt3a conditioned medium added 20 min before measurement; cross-correlation percentages normalised to the positive control EGFP-mCherry.

On to “Fz8a-EGFP (from UniProt Q9YI00) (receptor)”, for which the binding result was “binds”.
